Record: PubChem BioAssay AID504786 (Drosophila RNAi Screening Center, 2011)

Screen: 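Knock-downs reducing HIF reporter induction by the iron chelator DFO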 (primary screen)
Cells: Drosophila S2 cells with a stable HIF luciferase reporter
Knock-down reagent: long dsRNA against Drosophila genes, about 0.2 µg dsRNA per well of a 384-well plate
Time to read-out: three days of knock-down, then 20 h of DFO before reading
Conditions: desferrioxamine (DFO) at 100 µM, an iron chelator that mimics hypoxia, for 20 h
Read-out: 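HIF reporter luminescence in cells given 100 µM DFO for 20 h, using the mouse ldh-a hypoxia-response element, scored as per-plate z-scores; higher means greater loss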
Reading the numbers: z-score: higher = stronger loss of HIF reporter signal
In all, the deposit lists about 21,000 reagents; shown is a random part of those that have a named target and a result. 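Primary screen; positive scores mean lost reporter signal, so the sign may be inverted from the usual convention.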 Not all columns of the deposit are shown. Reagent sequences are not shown.

With knock-down of CG8260 [DRSC20098] the results were z-score, replicate 1 = -0.2.
Depletion of CG14647 [DRSC12233] came out at: z-score, replicate 1 = -0.3.
For CG7506 [DRSC10860] the deposit lists z-score, replicate 1 = -0.3.
With knock-down of CG9961 [DRSC00738] the results were z-score, replicate 1 = -0.2.
Against Set8 [DRSC15473], the entry reads z-score, replicate 1 = -0.4.
With knock-down of mira [DRSC16998], the screen gave z-score, replicate 1 = -0.2.
CG14322 [DRSC14801] scored z-score, replicate 1 = -0.9.
With knock-down of CG17085 (retired record) [DRSC02565], the record shows z-score, replicate 1 = -0.2.
After knock-down of CG17085 (retired record) [DRSC02566] the results were z-score, replicate 1 = -0.3.
CG13155 [DRSC06280] scored z-score, replicate 1 = -0.2.
Against CG42538 [DRSC09412] the deposit lists z-score, replicate 1 = 0.6.
For Ire1 [DRSC15606], the values are z-score, replicate 1 = -0.9.
With knock-down of zfh2 [DRSC17178], the screen gave z-score, replicate 1 = 2.1.
With knock-down of CG31769 [DRSC01361], the record shows z-score, replicate 1 = 1.3.
Depletion of Rsph4a [DRSC04338] gave: z-score, replicate 1 = 0.
Against tei [DRSC07616], the values are z-score, replicate 1 = 0.1.
With knock-down of CG13705 [DRSC08314], the screen gave z-score, replicate 1 = -0.4.
CG40053 (retired record) [DRSC20833] scored z-score, replicate 1 = -0.4.
Depletion of Ssdp [DRSC16211] came out at: z-score, replicate 1 = -0.8.
GMF [DRSC01928] scored z-score, replicate 1 = -0.3.
After knock-down of CG33337 [DRSC13632] the results were z-score, replicate 1 = -0.2.
Knock-down of CG8100 [DRSC10961] came out at: z-score, replicate 1 = -0.3.

Copied from the list:
Entry of CG8260 [DRSC20098] in “z-score, replicate 1”: -0.2
Result for Set8 [DRSC15473] under “z-score, replicate 1”: -0.4
Under “z-score, replicate 1”, Ire1 [DRSC15606] reads -0.9
Rsph4a [DRSC04338], z-score, replicate 1 = 0

The listing continues.
After knock-down of CG7201 [DRSC10786], the record shows z-score, replicate 1 = -0.2.
bonsai [DRSC04453] showed z-score, replicate 1 = 1.2.
CG31093 [DRSC15689] gave z-score, replicate 1 = -0.2.
Knock-down of Scp2 [DRSC13166] gave: z-score, replicate 1 = -0.6.
Scp2 [DRSC16854] showed z-score, replicate 1 = -0.2.
After knock-down of Xpac [DRSC18730], the record shows z-score, replicate 1 = -0.2.
Silencing of cato [DRSC07589] resulted in: z-score, replicate 1 = -0.3.
CG30109 [DRSC05675] gave z-score, replicate 1 = -0.3.
Nprl3 [DRSC11044] gave z-score, replicate 1 = -0.4.
Hexo2 [DRSC18671] scored z-score, replicate 1 = -0.3.
For CG6656 [DRSC16085], the entry reads z-score, replicate 1 = -0.3.
After knock-down of Ae2 [DRSC08997], the record shows z-score, replicate 1 = -0.1.
Knock-down of Ae2 [DRSC10969] resulted in: z-score, replicate 1 = -0.1.
For NaPi-T [DRSC07476], the values are z-score, replicate 1 = -0.4.
With knock-down of TER94 [DRSC07560], the screen gave z-score, replicate 1 = 4.5.
Against Rab1 [DRSC16808], the entry reads z-score, replicate 1 = 1.2.
Against Veneno [DRSC16537], the entry reads z-score, replicate 1 = -0.3.
Ntl [DRSC03003] gave z-score, replicate 1 = -1.1.
